From PMC9274506
These are yes or no findings as the source states them, for the method shown. In cells and extracts the contact can be indirect. Some entries that bind do so weakly or less than the wild type.

Chains of the proteins cited; added tags and fusions are not shown.
UniProt P46938: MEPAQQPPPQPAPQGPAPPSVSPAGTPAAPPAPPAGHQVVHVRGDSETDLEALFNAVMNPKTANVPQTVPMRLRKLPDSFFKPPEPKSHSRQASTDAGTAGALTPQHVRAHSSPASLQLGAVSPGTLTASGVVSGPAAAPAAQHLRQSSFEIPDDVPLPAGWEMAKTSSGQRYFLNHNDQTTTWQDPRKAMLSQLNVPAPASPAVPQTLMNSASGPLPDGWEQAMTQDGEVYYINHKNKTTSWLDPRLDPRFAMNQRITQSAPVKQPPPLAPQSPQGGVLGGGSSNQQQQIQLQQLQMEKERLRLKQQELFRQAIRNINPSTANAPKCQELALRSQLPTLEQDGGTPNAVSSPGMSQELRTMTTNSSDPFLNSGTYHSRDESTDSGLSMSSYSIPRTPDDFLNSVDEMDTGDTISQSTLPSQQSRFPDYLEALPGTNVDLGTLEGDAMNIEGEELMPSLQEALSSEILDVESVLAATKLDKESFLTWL
UniProt Q02248: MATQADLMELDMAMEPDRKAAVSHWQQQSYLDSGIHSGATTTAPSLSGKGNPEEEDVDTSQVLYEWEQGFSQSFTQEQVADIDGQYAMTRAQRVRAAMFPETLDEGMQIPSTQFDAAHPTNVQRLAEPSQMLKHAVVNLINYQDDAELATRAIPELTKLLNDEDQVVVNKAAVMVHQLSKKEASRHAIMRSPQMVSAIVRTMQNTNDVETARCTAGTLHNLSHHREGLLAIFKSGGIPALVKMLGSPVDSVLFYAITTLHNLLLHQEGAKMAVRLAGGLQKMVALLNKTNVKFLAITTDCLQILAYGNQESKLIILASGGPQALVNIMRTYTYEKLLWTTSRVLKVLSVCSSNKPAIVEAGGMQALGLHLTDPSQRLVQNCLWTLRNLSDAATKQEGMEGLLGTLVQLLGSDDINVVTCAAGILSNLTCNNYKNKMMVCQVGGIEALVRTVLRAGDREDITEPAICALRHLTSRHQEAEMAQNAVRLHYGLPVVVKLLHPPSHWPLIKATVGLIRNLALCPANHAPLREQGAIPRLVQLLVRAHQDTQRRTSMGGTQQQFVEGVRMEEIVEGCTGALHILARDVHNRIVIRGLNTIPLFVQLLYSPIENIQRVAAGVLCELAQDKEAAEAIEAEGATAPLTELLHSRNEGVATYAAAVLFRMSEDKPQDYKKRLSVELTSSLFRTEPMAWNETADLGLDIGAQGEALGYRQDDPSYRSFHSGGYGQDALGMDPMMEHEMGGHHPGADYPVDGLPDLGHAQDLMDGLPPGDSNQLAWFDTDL

Target: Yes-associated protein (YAP) (mouse (endogenous in PSCs)) (UniProt P46938)
Test: co-IP; nuclear and cytoplasmic PSC lysates precipitated with anti-YAP or non-specific IgG for 2 h, after treatment of cells with Yoda1 (1 µM) for 24 h; immunoblot of precipitates

binding: binds
Substance: β-catenin (from UniProt Q02248 1-781)
